Experimental data from ChEMBL document CHEMBL1130802, “Design and synthesis of a new type of non steroidal human aromatase inhibitors” (Bioorg Med Chem Lett, 1998).

How the values were obtained:
[1] = target: T1, Aromatase (Homo sapiens, UniProt P11511)
T1 sequence (P11511 whole entry): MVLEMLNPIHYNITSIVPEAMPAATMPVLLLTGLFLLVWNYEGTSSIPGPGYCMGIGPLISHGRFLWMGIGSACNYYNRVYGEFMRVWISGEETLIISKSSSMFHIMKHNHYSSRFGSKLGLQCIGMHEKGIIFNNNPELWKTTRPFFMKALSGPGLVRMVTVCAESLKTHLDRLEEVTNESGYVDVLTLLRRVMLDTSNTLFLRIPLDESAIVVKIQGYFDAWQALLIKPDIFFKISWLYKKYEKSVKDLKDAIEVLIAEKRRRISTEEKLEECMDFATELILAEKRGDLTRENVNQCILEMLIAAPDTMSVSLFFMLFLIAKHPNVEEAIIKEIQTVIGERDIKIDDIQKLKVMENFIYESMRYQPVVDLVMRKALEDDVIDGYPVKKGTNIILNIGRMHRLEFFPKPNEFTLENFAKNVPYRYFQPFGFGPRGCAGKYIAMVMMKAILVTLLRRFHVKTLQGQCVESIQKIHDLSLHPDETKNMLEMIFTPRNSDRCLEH

[2] = target: T1, Aromatase; remark: listed apart in the source

COc1ccc2c(c1)C(N)=C(CC1=CCNC=C1)C2=O
Ki [1]: 86.2 nM | IC50 [2]: 3500 nM
